# US20240108662A1, “ENGINEERED CELLS FUNCTIONALIZED WITH IMMUNE CHECKPOINT MOLECULES AND USES THEREOF” (The University of North Carolina at Chapel Hill, priority 2020, published 2024)
# B1: Q6A026 (protein, UniProt Q6A026 1-1332, looked up)
# chain: MDFTQPKPATALCGVVSADGKIAYPPGVKEITDKITTDEMIKRLKMVVKTFMDMDQDSEDEKQQYLPLALHLASEFFLRNPNKDVRLLVACCLADIFRIYAPEAPYTSHDKLKDIFLFITRQLKGLEDTKSPQFNRYFYLLENLAWVKSYNICFELEDCNEIFIQLFRTLFSVINNSHNTKVQMHMLDLMSSIIMEGDGVTQELLDSILINLIPAHKNLNKQSFDLAKVLLKRTVQTIEACIANFFNQVLVLGRSSVSDLSEHVFDLIQELFAIDPQLLLSVMPQLEFKLKSNDGEERLAVVRLLAKLFGSKDSDLATQNRPLWQCFLGRFNDIHVPVRLESVKFASHCLMNHPDLAKDLTEYLKVRSHDPEEAIRHDVIVTIITAAKRDLALVNDQLLGFVRERTLDKRWRVRKEAMMGLAQLYKKYCLHGEAGKEAAEKVSWIKDKLLHIYYQNSIDDKLLVEKIFAQYLVPHNLETEERMKCLYYLYASLDPNAVKALNEMWKCQNMLRSHVRELLDLHKQPTSEANCSAMFGKLMTIAKNLPDPGKAQDFVKKFNQVLGDDEKLRSQLELLISPTCSCKQADVCVREIARKLANPKQPTNPFLEMVKFLLERIAPVHIDSEAISALVKLMNKSIEGTADDEEEGVSPDSAIRSGLELLKVLSFTHPTSFHSAETYESLLQCLRMEDDKVAEAAIQIFRNTGHKIETDLPQIRSTLIPILHQKAKRGTPHQAKQAVHCIHAIFSNKEVQLAQIFEPLSRSLNADVPEQLITPLVSLGHISMLAPDQFASPMKSVVANFIVKDLLMNDRSTGEKNGKLWSPDEEVSPEVLAKVYLLRLLVRWLLGMKNNQSKSANSTLRLLSAMLVSEGDLTEQKRISKSDMSRLRLAAGSAIMKLAQEPCYHEIITPEQFQLCALVINDECYQVRQIFAQKLHKALVKLLLPLEYMAIFALCAKDPVKERRAHARQCLLKNISIRREYIKQNPMATEKLLSLLPEYVVPYMIHLLAHDPDFTRSQDVDQLRDIKECLWFMLEVLMTKNENNSHAFMKKMAENIKLTRDAQSPDESKTNEKLYTVCDVALCVINSKSALCNADSPKDPVLPMKFFTQPEKDFCNDKSYISEETRVLLLTGKPKPTGVLGTVNKPLSATGRKPYVRSAGTETGSNINANSELSPSAGSRSREQSSEASETGVSENEENPVRIISVTPVKNIDTVKNKEINSDQSTQGNISSDRGKKRIVTAAGAENIQKPDEKVDESGPPAPSKPRRGRRPKSESQGNATKNDDLNKPVSKGRKRAAGSQESLEAGNAKAPKLQDGAKKAVPAERQIDLQR
# modifications: full-length
# B2: P54116 (protein, UniProt P54116 1-284, looked up)
# chain: MSDKRQSSHVQSQRIPESFRENSKTELGACGWILVAASFFFVIITFPISIWICIKIVKEYERVIIFRLGRILQGGAKGPGLFFILPCTDSLIKVDMRTISFDIPPQEVLTKDSVTISVDGVVYYRVQNATLAVANITNADSATRLLAQTTLRNALGTKNLSQILSDREEIAHHMQSTLDDATDDWGIKVERVEIKDVKLPVQLQRAMAAEAEAAREARAKVIAAEGEMNASRALKEASMVITESPAALQLRYLQTLTTIAAEKNSTIVFPLPVDMLQGIMGSNH
# modifications: full-length
# B3: Q9QXB9 (protein, UniProt Q9QXB9 1-364, looked up)
# chain: MGILEKISEIEKEIARTQKNKATEYHLGLLKAKLAKYRAQLLEPSKSASSKGEGFDVMKSGDARVALIGFPSVGKSTFLSLMTSTASEAASYEFTTLTCIPGVIEYKGANIQLLDLPGIIEGAAQGRGRGRQVIAVARTADVVVMMLDATKGDVQRSLLEKELESVGIRLNKHKPNIYFKPKKGGGISFNSTVTLTQCSEKLVQLILHEYKIFNAEVLFREDCSPDDFIDVIVGNRVYMPCLYVYNKIDQISMEEVDRLARKPNSVVISCGMKLNLDYLLEMLWEYLALTCIYTKKRGQRPDFTDAIILRKGASVEHVCHRIHRSLASQFKYALVWGTSTKYSPQRVGLTHTMEHEDVIQIVKK
# modifications: full-length
# B4: Q9CQZ0 (protein, UniProt Q9CQZ0 1-153, looked up)
# chain: MNVGVAHSEVNPNTRVMNSRGIWLAYIILVGLLHVVLLSIPFFSIPVVWTLTNVIHNLAMYIFLHTVKGTPFETPDQGKARLLTHWEQMDYGLQFTSSRKFLSISPIVLYLLASFYTKYDAAHFLINTASLLSVLLPKLPQFHGVRLFGINKY
# modifications: full-length
# B5: Q6P8H8 (protein, UniProt Q6P8H8 1-526, looked up)
# chain: MAASGSATAGGHWFSALALGVTLLKCLLIPTYHSTDFEVHRNWLAITHSLPISQWYYEATSEWTLDYPPFFAWFEYALSHIAKYFDQEMLNIHNLNYYSSRTLLFQRFSVILTDALFVYAVHECCKCIDGKRTGKDLTEKPKFILSVLLLWNFGLLIVDHIHFQYNGFLSGLLLLSIARLFQKRHIEGALLFAVLLHLKHIYLYVAPAYGVYLLRSYCFTASKPDGSVRWSSFSVVRVTSLGLIVFLVSALSLGPFLALNQLPQVFSRLFPFKRGLCHAYWAPNFWALYNALDKVLSVIGLKLKLLDPSQIPRASMTSGLVQQFQHTVLPSVSPLATLICTLIAILPSVFCLWFKPQGPRGFLRCLVLCALSSFMFGWHVHEKAILLAILPMSLLSVEKAGDATVFLILATTGHYSLFPLLFTAPELPIKILLMLLFTVYSISSLKTLFRKEKPLFNWMETVYLLGLGPLEVCCEFLLPFTSWKLKYPFIPLLLTSVYCAVGITYAWTRLYASVLTGSLVSKTKKH
# modifications: full-length
# B6: Q922P9 (protein, UniProt Q922P9 1-546, looked up)
# chain: MAAVSLRLGDLVWGKLGRYPPWPGKIVNPPKDLKKPRGKKCFFVKFFGTEDHAWIKVEQLKPYHAHKEEMIKINKGKRFQQAVDAVEEFLRRAKGKDQTSSHTSADDKNRRNSSEERSRPNSGDEKRKLSLSEGKVKKNMGEGKKRVTSGSADRGSKCLKRAQEQSPRKRGRPPKDEKDLTIPESSTVKGMMAGPMAAFKWQPTATEPVKDADPHFHHFLLSQTEKPAVCYQAITKKLKICEEETGSTSIQAADSTAVNGSITPTDKKIGFLGLGLMGSGIVSNLLKMGHTVTVWNRTAEKEGARLGRTPAEVVSTCDITFACVSDPKAAKDLVLGPSGVLQGIRPGKCYVDMSTVDADTVTELAQVIVSRGGRFLEAPVSGNQQLSNDGMLVILAAGDRGLYEDCSSCFQAMGKTSFFLGEVGNAAKMMLIVNMVQGSFMATIAEGLTLAQVTGQSQQTLLDILNQGQLASIFLDQKCQNILQGNFKPDFYLKYIQKDLRLAIALGDAVNHPTPMAAAANEVYKRAKALDQSDNDMSAVYRAYIH
# modifications: full-length
# B7: Q80UJ7 (protein, UniProt Q80UJ7 1-981, looked up)
# chain: MAADSEPESEVFEITDFTTASEWERFISKVEEVLNDWKLIGPSLGKPLEKGIFTSGTWEERSDEISFADFRFSVTHHYLVQESPDKERKDEELEDAIPQSMQDLLCMNNDFPPRAHCLVRWYGLREFVVIAPAAHSDAVLSESKCNLLLSSISIALGNTGCQVPLFVQIHHKWRRMYMGECQGPGVRTDFEMVHLRKVPSQYTHLSGLLDIFKSKIGCPLTPLPPVSIAIRLTYVLQDWQQYFWPQQPPDIDALVGGEVGGLEFGKLPFGACEDPISELHLATTWPHLTEGIIVDNDVYSDLDPVQAPHWSVRVRKADNPQCLLGDFVTEFLKICRRKESTDEILGRSTFEEEGREVADITHALSKLTEPAPVPIHKLSVSNMVHTAKKKIRKHRGEESPLNSDVLNTILLFLFPDAVSEKPLDGTTSIDNSIPAPEAGDYTLYNQFKSAPSDSLTYKLALCLCMINFYHGGLKGVAHLWQEFVLEMRFRWENNFLIPGLASGSPDLRCCLLHQKLQMLNCCIERKKARDEGKKTSLSDSTTSAYPGDAGKTGGQLGLDHLRDTEKEKGEVGKSWDSWSDSEEEFFECLSDTEDLKGNGQESGKKGGPKEMANLKPEGRLHQHGKLTLLHNGEPLYIPVTQEPAPMTEDLLEEQSEVLAKLGTSAEGAHLRARMQSACLLSDMESFKAANPGCFLEDFVRWYSPRDYIEEEVTDEKGNVVLKGELSARMKIPSNMWVEAWETAKPVPARRQRRLFDDTREAEKVLHYLAMQKPADLARHLLPCVIHAAVLKVKEEESLENIPSVKKIIKQIIAHSSKVLHFPNPEDKKLEEIILQITTVEAIIARARSLKAKFGTEKCEHEEEKEGLERFVSCLLEQPEVSVTGAGRGHAGRIIHKLFVNAQRAAAVALPEEELKKSGCPEERRQTLVSDFPPPAGRELILRATVPRPAPYSKALPQRMYSVLTKEDFRLAGAFSSDTSFF
# modifications: full-length
# B8: P29788 (protein, UniProt P29788 1-478, looked up)
# chain: MAPLRPFFILALVAWVSLADQESCKGRCTQGFMASKKCQCDELCTYYQSCCADYMEQCKPQVTRGDVFTMPEDDYWSYDYVEEPKNNTNTGVQPENTSPPGDLNPRTDGTLKPTAFLDPEEQPSTPAPKVEQQEEILRPDTTDQGTPEFPEEELCSGKPFDAFTDLKNGSLFAFRGQYCYELDETAVRPGYPKLIQDVWGIEGPIDAAFTRINCQGKTYLFKGSQYWRFEDGVLDPGYPRNISEGFSGIPDNVDAAFALPAHRYSGRERVYFFKGKQYWEYEFQQQPSQEECEGSSLSAVFEHFALLQRDSWENIFELLFWGRSSDGAREPQFISRNWHGVPGKVDAAMAGRIYVTGSLSHSAQAKKQKSKRRSRKRYRSRRGRGHRRSQSSNSRRSSRSIWFSLFSSEESGLGTYNNYDYDMDWLVPATCEPIQSVYFFSGDKYYRVNLRTRRVDSVNPPYPRSIAQYWLGCPTSEK
# modifications: full-length
# B9: Q8K363 (protein, UniProt Q8K363 1-660, looked up)
# chain: MSQLQMKLLRRKIEKRNAKLRQRNLKLQETSDTSLSQPQNGDVPKETGKGGKVKKALKRSVPVDSAEAQSGGMPEETLENGKVKKSPQKLTTLANGEAAPTPPPDSEVKKKKKKKRKMANDAGPDTKKAKTEESAEACEEPEDDVKKADDSEVPSLPLGLTGAFEDTSFASLSNLVNENTLKAIEEMGFKRMTEIQHKSIRPLLEGRDLLAAAKTGSGKTLAFLIPVIELIVKLKFMPRNGTGVLILSPTRELAMQTFGVLKELMTHHVHTYGLIMGGSNRSAEVQKLLNGINIIVATPGRLLDHMQNTPGFMYKNLQCLVIDEADRILDVGFEEELKQIIKLLPARRQTMLFSATQTRKVEDLARISLKKEPLYVGVDDDKEVATVDGLEQGYVVCPSEKRFLLLFTFLKKNRKKKVMVFFSSCMSVKYHYELLNYIDLPVLAIHGKQKQNKRTTTFFQFCNADSGILLCTDVAARGLDIPEVDWIVQYDPPDDPKEYIHRVGRTARGLNGRGHALLILRPEELGFLRYLKQSKVPLNQFDFSWSKVSDIQSQLEKLIEKNYFLHKSAQEAYKSYIRAYDSHSLKQIFNVNNLNLPQVALSFGFKVPPFVDLNVSSHDGKLKKRGGGGGFGYQKTKKVEKSKIFKHISKKPADRRQFSH
# modifications: full-length
# Test: Proteomic analysis of native murine pancreata and decelled pancreatic ECM (Table 1)
# Set-up: species or system mouse
# Conditions: for Pancreatic ECM: Mean of log2(intensities): abundance of the listed protein in decelled pancreatic ECM; for Native pancreas tissue: Mean of log2(intensities): abundance of the listed protein in native murine pancreas tissue
Molecule,Pancreatic ECM: Mean of log2(intensities) [a.u.],Native pancreas tissue: Mean of log2(intensities) [a.u.]
B1,25.72,22.68
B2,25.18,22.00
B3,24.79,21.63
B4,24.61,21.55
B5,25.56,22.40
B6,25.53,22.44
B7,24.74,21.67
B8,25.77,21.35
B9,24.85,21.77
